Consider 26 compounds from the supplement of paper PMC4604168 (melanoma cell lines).

The list shows a part of the results. Single values are uncertain, as repeats are few or missing.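 The apoptosis fraction was the count of cleaved-PARP antibody-stained nuclei relative to all DNA-stained nuclei, imaged in 1,536-well plates. Screening doses were set so most cells survived, and baseline and induced cleaved-PARP levels vary greatly across cell lines.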

For the assay, the system named is C32. As to the kind of experiment: cleaved PARP positive nuclei fraction relative to DMSO control; melanoma cells; higher = more apoptosis. The conditions noted are these: library dose: low library concentration; 72 h.
Consider `C[C@]1(O)C[C@@H](c2nc(-c3ccc4ccc(-c5ccccc5)nc4c3)c3c(N)nccn32)C1` + CC(=O)O[C@@]12CO[C@@H]1C[C@H](O)[C@@]1(C)C(=O)[C@H](O)C3=C(C)[C@@H](OC(=O)[C@H](O)[C@@H](NC(=O)OC(C)(C)C)c4ccccc4)C[C@@](O)([C@@H](OC(=O)c4ccccc4)[C@H]21)C3(C)C [Docetaxel] (first compound 0.4 µM, partner dose 0.0001 µM), for which the “cleaved PARP positive nuclei fraction” value was found to be 101%. For `CC1(C)CCC(c2ccc(Cl)cc2)=C(CN2CCN(c3ccc(C(=O)NS(=O)(=O)c4ccc(N[C@H](CCN5CCOCC5)CSc5ccccc5)c(S(=O)(=O)C(F)(F)F)c4)cc3)CC2)C1` + Cn1sc(=O)n(Cc2ccccc2)c1=O [TDZD-8] (first compound 0.4 µM, partner dose 0.4 µM) the value was 236%.

With `C[C@]1(O)C[C@@H](c2nc(-c3ccc4ccc(-c5ccccc5)nc4c3)c3c(N)nccn32)C1` + OCc1c[nH]c2ccccc12 [Indole-3-carbinol] (first compound 0.4 µM, partner dose 0.8 µM), the “cleaved PARP positive nuclei fraction” value stood at 89%. `CN(c1ncccc1CNc1nc(Nc2ccc3c(c2)CC(=O)N3)ncc1C(F)(F)F)S(C)(=O)=O` + C[C@]1(c2nc3c(C(N)=O)cccc3[nH]2)CCCN1 [Veliparib] (first compound 0.08 µM, partner dose 1.4 µM): the “cleaved PARP positive nuclei fraction” value came out at 90%.

On to `C[C@]1(O)C[C@@H](c2nc(-c3ccc4ccc(-c5ccccc5)nc4c3)c3c(N)nccn32)C1` + CCCS(=O)(=O)Nc1ccc(F)c(C(=O)c2c[nH]c3ncc(Cl)cc23)c1F [PLX4720] (first compound 0.4 µM, partner dose 0.08 µM), for which the “cleaved PARP positive nuclei fraction” value stood at 362%.

As for `CN(c1ncccc1CNc1nc(Nc2ccc3c(c2)CC(=O)N3)ncc1C(F)(F)F)S(C)(=O)=O` + Cn1c(=O)n(-c2ccc(C(C)(C)C#N)cc2)c2c3cc(-c4cnc5ccccc5c4)ccc3ncc21 [NVP-BEZ235] (first compound 0.08 µM, partner dose 0.004 µM), the “cleaved PARP positive nuclei fraction” value was 88.8%. The result for `NC(=O)c1ccc(N(C(N)=O)c2c(F)cccc2F)nc1-c1ccc(F)cc1F` + CC(=O)c1c(C)c2cnc(Nc3ccc(N4CCNCC4)cn3)nc2n(C2CCCC2)c1=O [palbociclib] (first compound 0.4 µM, partner dose 0.04 µM) reads 83.3%. With `CN(c1ncccc1CNc1nc(Nc2ccc3c(c2)CC(=O)N3)ncc1C(F)(F)F)S(C)(=O)=O` + CCCS(=O)(=O)Nc1ccc(F)c(C(=O)c2c[nH]c3ncc(Cl)cc23)c1F [PLX4720] (first compound 0.08 µM, partner dose 0.08 µM), the “cleaved PARP positive nuclei fraction” value amounted to 80%. The result for `CCCCCCCCc1ccc(CCC(N)(CO)CO)cc1` [fingolimod] + Nc1nc(F)nc2c1ncn2[C@@H]1O[C@H](CO)[C@@H](O)[C@@H]1O [fludarabine] (first compound 2 µM, partner dose 0.2 µM) reads 154%; that for `CCCCCCCCc1ccc(CCC(N)(CO)CO)cc1` [fingolimod] + CC(=O)c1c(C)c2cnc(Nc3ccc(N4CCNCC4)cn3)nc2n(C2CCCC2)c1=O [palbociclib] (first compound 2 µM, partner dose 0.04 µM), 91.7%. The result for `CC(=O)O[C@@]12CO[C@@H]1C[C@H](O)[C@@]1(C)C(=O)[C@H](O)C3=C(C)[C@@H](OC(=O)[C@H](O)[C@@H](NC(=O)OC(C)(C)C)c4ccccc4)C[C@@](O)([C@@H](OC(=O)c4ccccc4)[C@H]21)C3(C)C` [Docetaxel] + Cc1cc(Nc2cc(N3CCN(C)CC3)nc(/C=C/c3ccccc3)n2)n[nH]1 [ENMD2076] (first compound 0.0001 µM, partner dose 0.04 µM) reads 76.7%. The result for `CC1(C)CCC(c2ccc(Cl)cc2)=C(CN2CCN(c3ccc(C(=O)NS(=O)(=O)c4ccc(N[C@H](CCN5CCOCC5)CSc5ccccc5)c(S(=O)(=O)C(F)(F)F)c4)cc3)CC2)C1` + CCCS(=O)(=O)Nc1ccc(F)c(C(=O)c2c[nH]c3ncc(Cl)cc23)c1F [PLX4720] (first compound 0.4 µM, partner dose 0.08 µM) reads 129%; that for `CC(=O)O[C@@]12CO[C@@H]1C[C@H](O)[C@@]1(C)C(=O)[C@H](O)C3=C(C)[C@@H](OC(=O)[C@H](O)[C@@H](NC(=O)OC(C)(C)C)c4ccccc4)C[C@@](O)([C@@H](OC(=O)c4ccccc4)[C@H]21)C3(C)C` [Docetaxel] + Cn1c(Nc2ccc(C(F)(F)F)cc2)nc2cc(Oc3ccnc(-c4ncc(C(F)(F)F)[nH]4)c3)ccc21 [CHIR265] (first compound 0.0001 µM, partner dose 0.08 µM), 284%; that for `Cn1sc(=O)n(Cc2ccccc2)c1=O` + CC(C)C[C@H](NC(=O)[C@H](Cc1ccccc1)NC(=O)c1cnccn1)B(O)O [Bortezomib] (first compound 0.4 µM, partner dose 0.001 µM), 42.5%. As for `COc1ccc(C2=N[C@@H](c3ccc(Cl)cc3)[C@@H](c3ccc(Cl)cc3)N2C(=O)N2CCNC(=O)C2)c(OC(C)C)c1` [Nutlin-3] + C=CCNC1=C2C[C@@H](C)C[C@H](OC)[C@H](O)[C@@H](C)/C=C(\C)[C@H](OC(N)=O)[C@@H](OC)/C=C\C=C(/C)C(=O)NC(=CC1=O)C2=O [Tanespimycin] (first compound 0.1 µM, partner dose 0.002 µM), the “cleaved PARP positive nuclei fraction” value is 89.4%. The result for `C[C@@H](N)c1ccc(C(=O)Nc2ccnc3[nH]ccc23)cc1` + CC(C)C[C@H](NC(=O)[C@H](Cc1ccccc1)NC(=O)c1cnccn1)B(O)O [Bortezomib] (first compound 0.4 µM, partner dose 0.001 µM) reads 76.7%; that for `C[C@]1(O)C[C@@H](c2nc(-c3ccc4ccc(-c5ccccc5)nc4c3)c3c(N)nccn32)C1` + CS(=O)(=O)CCNCc1ccc(-c2ccc3ncnc(Nc4ccc(OCc5cccc(F)c5)c(Cl)c4)c3c2)o1 [lapatinib] (first compound 0.4 µM, partner dose 0.8 µM), 82.9%. For `Cn1sc(=O)n(Cc2ccccc2)c1=O` + CNC(=O)c1cc(Oc2ccc(NC(=O)Nc3ccc(Cl)c(C(F)(F)F)c3)cc2)ccn1 [sorafenib] (first compound 0.4 µM, partner dose 0.4 µM) the value was 69.7%; for `CN(c1ncccc1CNc1nc(Nc2ccc3c(c2)CC(=O)N3)ncc1C(F)(F)F)S(C)(=O)=O` + CS(=O)(=O)CCNCc1ccc(-c2ccc3ncnc(Nc4ccc(OCc5cccc(F)c5)c(Cl)c4)c3c2)o1 [lapatinib] (first compound 0.08 µM, partner dose 0.8 µM), 312%.

In the case of `CCCCCCCCc1ccc(CCC(N)(CO)CO)cc1` [fingolimod] + CC(=O)O[C@@]12CO[C@@H]1C[C@H](O)[C@@]1(C)C(=O)[C@H](O)C3=C(C)[C@@H](OC(=O)[C@H](O)[C@@H](NC(=O)OC(C)(C)C)c4ccccc4)C[C@@](O)([C@@H](OC(=O)c4ccccc4)[C@H]21)C3(C)C [Docetaxel] (first compound 2 µM, partner dose 0.0001 µM), the “cleaved PARP positive nuclei fraction” value was found to be 86.4%. For `CCCCCCCCc1ccc(CCC(N)(CO)CO)cc1` [fingolimod] + COCC[n+]1c2c(n(Cc3cnccn3)c1C)C(=O)c1ccccc1C2=O [YM155] (first compound 2 µM, partner dose 0.0004 µM) the value was 77.6%. As to `NC1(c2ccc(-c3nc4ccn5c(=O)[nH]nc5c4cc3-c3ccccc3)cc2)CCC1` + C[C@@H](Oc1cc(-c2cnn(C3CCNCC3)c2)cnc1N)c1c(Cl)ccc(F)c1Cl [Crizotinib] (first compound 0.4 µM, partner dose 0.2 µM), the “cleaved PARP positive nuclei fraction” value turned out to be 95.2%. The result for `C[C@]1(O)C[C@@H](c2nc(-c3ccc4ccc(-c5ccccc5)nc4c3)c3c(N)nccn32)C1` + Cc1cc(Nc2cc(N3CCN(C)CC3)nc(/C=C/c3ccccc3)n2)n[nH]1 [ENMD2076] (first compound 0.4 µM, partner dose 0.04 µM) reads 81.2%; that for `Cn1sc(=O)n(Cc2ccccc2)c1=O` + C[C@@H](Oc1cc(-c2cnn(C3CCNCC3)c2)cnc1N)c1c(Cl)ccc(F)c1Cl [Crizotinib] (first compound 0.4 µM, partner dose 0.2 µM), 153%; that for `NC(=O)c1ccc(N(C(N)=O)c2c(F)cccc2F)nc1-c1ccc(F)cc1F` + CCCCCCCCc1ccc(CCC(N)(CO)CO)cc1 [fingolimod] (first compound 0.4 µM, partner dose 2 µM), 160%. The result for `NC1(c2ccc(-c3nc4ccn5c(=O)[nH]nc5c4cc3-c3ccccc3)cc2)CCC1` + CO[C@H]1C[C@@H]2CC[C@@H](C)[C@@](O)(O2)C(=O)C(=O)N2CCCC[C@H]2C(=O)O[C@H]([C@H](C)C[C@@H]2CC[C@@H](OCCO)[C@H](OC)C2)CC(=O)[C@H](C)/C=C(\C)[C@@H](O)[C@@H](OC)C(=O)[C@H](C)C[C@H](C)/C=C/C=C/C=C/1C [everolimus] (first compound 0.4 µM, partner dose 0.02 µM) reads 358%.
